According to US10239893B2, “Controlling the isomerization rate of Azo-BF2 switches using aggregation” (THE TRUSTEES OF DARTMOUTH COLLEGE, priority 2013, dated 2019):

Experiment: Photoisomerization quantum yields
Format: physicochemical

Structure (SMILES) | photoisomerization quantum yield Φcis→trans | photoisomerization quantum yield Φtrans→cis
COc1ccc(N=[N+]2C(C#N)=C3C=Cc4ccccc4N3[B-]2(F)F)cc1 [Compound 2] | 95% | 71%
COc1ccc(N=[N+]2C(C#N)=C3C=Cc4ccccc4N3[B-]2(F)F)c(OC)c1 [Compound 3] | 51% | 42%
